Measured values taken from article doi:10.1101/409490.

T1: Ska1-TAP (S. cerevisiae) (UniProt P36103)
T1 sequence: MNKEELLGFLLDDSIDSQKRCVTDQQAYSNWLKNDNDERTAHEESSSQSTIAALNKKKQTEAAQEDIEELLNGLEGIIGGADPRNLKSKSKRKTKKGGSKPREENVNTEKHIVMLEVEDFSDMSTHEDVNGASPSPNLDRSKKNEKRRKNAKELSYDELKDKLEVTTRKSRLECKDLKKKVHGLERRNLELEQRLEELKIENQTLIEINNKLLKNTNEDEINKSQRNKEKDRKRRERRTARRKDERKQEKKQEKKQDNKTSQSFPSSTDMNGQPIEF

T2: Ski3-TAP (S. cerevisiae) (UniProt P17883)
T2 sequence: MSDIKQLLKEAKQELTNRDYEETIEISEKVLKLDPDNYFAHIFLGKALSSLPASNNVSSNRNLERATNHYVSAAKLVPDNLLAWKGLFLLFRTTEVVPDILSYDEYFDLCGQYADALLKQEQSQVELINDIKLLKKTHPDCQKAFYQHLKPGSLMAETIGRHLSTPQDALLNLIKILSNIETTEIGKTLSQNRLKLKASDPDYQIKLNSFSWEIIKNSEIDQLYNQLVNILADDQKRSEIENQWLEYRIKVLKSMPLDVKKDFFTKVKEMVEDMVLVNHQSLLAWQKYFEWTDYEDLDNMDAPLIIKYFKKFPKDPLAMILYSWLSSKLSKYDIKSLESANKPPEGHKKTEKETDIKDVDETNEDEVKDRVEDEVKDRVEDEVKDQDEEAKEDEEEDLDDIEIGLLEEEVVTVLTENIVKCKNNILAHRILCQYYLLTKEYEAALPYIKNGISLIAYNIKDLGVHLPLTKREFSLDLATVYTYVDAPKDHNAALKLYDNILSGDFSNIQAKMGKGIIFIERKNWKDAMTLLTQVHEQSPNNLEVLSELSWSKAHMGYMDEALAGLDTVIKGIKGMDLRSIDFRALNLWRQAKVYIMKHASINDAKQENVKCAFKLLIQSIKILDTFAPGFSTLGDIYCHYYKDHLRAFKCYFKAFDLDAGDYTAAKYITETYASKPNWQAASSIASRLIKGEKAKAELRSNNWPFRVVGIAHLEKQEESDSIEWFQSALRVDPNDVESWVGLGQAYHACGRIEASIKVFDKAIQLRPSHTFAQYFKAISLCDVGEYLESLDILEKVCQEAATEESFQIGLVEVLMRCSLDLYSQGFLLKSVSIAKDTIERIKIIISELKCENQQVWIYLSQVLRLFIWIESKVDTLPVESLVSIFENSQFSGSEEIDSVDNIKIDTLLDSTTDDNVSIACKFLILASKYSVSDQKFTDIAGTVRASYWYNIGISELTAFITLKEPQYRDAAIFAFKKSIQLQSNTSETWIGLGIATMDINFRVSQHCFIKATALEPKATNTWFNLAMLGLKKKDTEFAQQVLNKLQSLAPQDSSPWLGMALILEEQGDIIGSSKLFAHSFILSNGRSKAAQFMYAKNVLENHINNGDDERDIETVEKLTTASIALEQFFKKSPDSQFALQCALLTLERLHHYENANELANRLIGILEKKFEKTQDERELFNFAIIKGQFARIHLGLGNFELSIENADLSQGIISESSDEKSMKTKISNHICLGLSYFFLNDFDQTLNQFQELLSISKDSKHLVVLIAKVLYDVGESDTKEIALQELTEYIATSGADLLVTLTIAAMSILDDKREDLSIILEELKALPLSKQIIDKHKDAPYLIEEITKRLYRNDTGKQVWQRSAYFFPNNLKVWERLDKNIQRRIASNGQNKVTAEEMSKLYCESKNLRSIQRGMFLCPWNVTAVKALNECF


What was measured:
[1] = biological target: T1, Ska1-TAP (S. cerevisiae); assay: affinity purification with mass spectrometry
[2] = biological target: T2, Ski3-TAP (S. cerevisiae); assay: affinity purification with mass spectrometry

binding [1] | binding [2] | Binder
binds | binds | Ski2 (protein, UniProt P35207 1-1287) MSEGFSSSSIQELYQSLKEITNNADVELFEDRITKLDFESTDEPKHANDIIKDRFLRPSNALPWSLLDMVQDVPHTSSPEDCSGKLDYKELLKVPDPINRTSYQFKRTGLEGKISGYKEEVDLKEVANANASNSLSITRSINHNQNSVRGSTAQLPFTPGGIPMKSVKTDSEQNGSSTMANATKLLHKDGQGLFDIPEGMNRGIKPMDSPAENEDQNGQFKELKQLNEIDNELDIRIEANEAKLKEEEKSAKSISEEIMEEATEETTADNADDAEIDELLPIGIDFGRTKPVSKSVPVKKEWAHVVDLNHKIENFDELIPNPARSWPFELDTFQKEAVYHLEQGDSVFVAAHTSAGKTVVAEYAIAMAHRNMTKTIYTSPIKALSNQKFRDFKETFDDVNIGLITGDVQINPDANCLIMTTEILRSMLYRGADLIRDVEFVIFDEVHYVNDQDRGVVWEEVIIMLPQHVKFILLSATVPNTYEFANWIGRTKQKNIYVISTPKRPVPLEINIWAKKELIPVINQNSEFLEANFRKHKEILNGESAKGAPSKTDNGRGGSTARGGRGGSNTRDGRGGRGNSTRGGANRGGSRGAGAIGSNKRKFFTQDGPSKKTWPEIVNYLRKRELLPMVVFVFSKKRCEEYADWLEGINFCNNKEKSQIHMFIEKSITRLKKEDRDLPQILKTRSLLERGIAVHHGGLLPIVKELIEILFSKGFIKVLFATETFAMGLNLPTRTVIFSSIRKHDGNGLRELTPGEFTQMAGRAGRRGLDSTGTVIVMAYNSPLSIATFKEVTMGVPTRLQSQFRLTYNMILNLLRIEALRVEEMIKYSFSENAKETLQPEHEKQIKVLQEELQTIEYKSCEICDNDIEKFLELMLAYKEATVNLMQEMVKSPSILHILKEGRLVAFRDPNDCLKLGFVFKVSLKDAVCVIMTFTKPYKLPNGEPNHLIYFPKADGYRRRNFPKFQKTDFYMEEVPVTAIEVITKRKFAAPLGKVIKKDVAALNEFNAETNNILDGKTLKEAINIEKQGLKIHQILLDRTNIRDEIFKLKSIKCPNLSQHIVPKFKAHVIKKKIEELYHLMSDQNLSLLPDYEKRLAVLKDTEFIDQNHNVLLKGRVACEINSGYELVLTELILDNFLGSFEPEEIVALLSVFVYEGKTREEEPPIVTPRLAKGKQRIEEIYKKMLCVFNTHQIPLTQDEAEFLDRKRFAMMNVVYEWARGLSFKEIMEMSPEAEGTVVRVITWLDEICREVKTASIIIGNSTLHMKMSRAQELIKRDIVFAASLYL
binds | binds | Ski7 (protein, UniProt Q08491 1-747) MSLLEQLARKRIEKSKGLLSADQSHSTSKSASLLERLHKNRETKDNNAETKRKDLKTLLAKDKVKRSDFTPNQHSVSLSLKLSALKKSNSDLEKQGKSVTLDSKENELPTKRKSPDDKLNLEESWKAIKEMNHYCFLKNDPCINQTDDFAFTNFIIKDKKNSLSTSIPLSSQNSSFLSLKKHNNELLGIFVPCNLPKTTRKVAIENFNRPSPDDIIQSAQLNAFNEKLENLNIKSVPKAEKKEPINLQTPPTESIDIHSFIATHPLNLTCLFLGDTNAGKSTLLGHLLYDLNEISMSSMRELQKKSSNLDPSSSNSFKVILDNTKTERENGFSMFKKVIQVENDLLPPSSTLTLIDTPGSIKYFNKETLNSILTFDPEVYVLVIDCNYDSWEKSLDGPNNQIYEILKVISYLNKNSACKKHLIILLNKADLISWDKHRLEMIQSELNYVLKENFQWTDAEFQFIPCSGLLGSNLNKTENITKSKYKSEFDSINYVPEWYEGPTFFSQLYLLVEHNMNKIETTLEEPFVGTILQSSVLQPIAEINYVSLKVLINSGYIQSGQTIEIHTQYEDFHYYGIVSRMKNSKQILETNTKNNISVGLNPDILEVLVKIHNTEDFTKKQFHIRKGDIIIHSRKTNTLSPNLPNTLKLLALRLIKLSIQTHALSDPVDLGSELLLYHNLTHNAVKLVKILGTNDISINPNQSLIVEVEIIEPDFALNVIDSKYITNNIVLTSIDHKVIAVGRIACQ

Results are given in words; binding and its absence hold for the method and conditions named. In cells and extracts the contact can be indirect. A yes stands for co-enrichment or nearness to the bait. Other partners may have been found.
